In patent publication US6525059B1, “Substituted pyrazoles as p38 kinase inhibitors” (G. D. Searle & Company, priority 1998, dated 2003):

Tested on: TNF-α
Assay: LPS stimulation of TNF production by U937 cells
Type: cell-based
Conditions: read-out: U937 Cell IC50, LPS-stimulated human U937 cells

## CN(C)C(=O)NCc1[nH]nc(-c2ccc(F)cc2)c1-c1ccncc1
  IC50: > 1000 nM

Structures were worked out from names or drawings and are uncertain.
